# Measurements: the supplement of paper PMC11438910
# The list shows a part of the results. The signal is at background level for most entries.
# What was measured:
# Assay in all cases: fluorescence intensity of antibody binding to polysaccharide-coupled beads; higher = stronger binding
# [1] = target: pneumococcal polysaccharide Pn9N
# [2] = target: pneumococcal polysaccharide Pn9V
# [3] = target: pneumococcal polysaccharide C-Poly-1
# [4] = target: pneumococcal polysaccharide C-Poly-2
# [5] = target: pneumococcal polysaccharide Pn1
# [6] = target: pneumococcal polysaccharide Pn10A
# [7] = target: pneumococcal polysaccharide Pn10B
# [8] = target: pneumococcal polysaccharide Pn10C
# [9] = target: pneumococcal polysaccharide Pn10F
# [10] = target: pneumococcal polysaccharide Pn11A
# [11] = target: pneumococcal polysaccharide Pn11B
# [12] = target: pneumococcal polysaccharide Pn11C
# [13] = target: pneumococcal polysaccharide Pn11D
# [14] = target: pneumococcal polysaccharide Pn11F
# [15] = target: pneumococcal polysaccharide Pn12A
# [16] = target: pneumococcal polysaccharide Pn12B
# [17] = target: pneumococcal polysaccharide Pn12F
# [18] = target: pneumococcal polysaccharide Pn13
# [19] = target: pneumococcal polysaccharide Pn14
# [20] = target: pneumococcal polysaccharide Pn15A
# [21] = target: pneumococcal polysaccharide Pn15B
# [22] = antibody concentration 2337.65 ng/mL
# [23] = antibody concentration 12500 ng/mL
# [24] = antibody concentration 0.1 ng/mL
# [25] = antibody concentration 0.534724 ng/mL
# [26] = antibody concentration 2.8593 ng/mL
# [27] = antibody concentration 15.2894 ng/mL
# [28] = antibody concentration 81.7561 ng/mL
# [29] = antibody concentration 437.17 ng/mL
binder,measurement,setting,value
4-173.5 (protein) chain 1: QLQLQESGPGLVKPSETLSLTCAVSGDSISSNYWSWIRQPPGKGLEWIGRISDGGGSTDYNPSLKSRVTISTDTSKNQFSLKLNSVTAADTAVYFCARGSYRVDYWGQGVLVTVSS chain 2: QAALTQPPSMSGSPGQSVTISCTGASSDIGGYNRVSWYQQHPANAPKLMIYDVSKRPSGVSDRFSGSKSGNTASLTISGLQADDEADYYCSSYAHINTALFGGGTRLTVL,fluorescence intensity,[1]; [22],3400 MFI
same,fluorescence intensity,[1]; [23],5110 MFI
same,fluorescence intensity,[2]; [24],16.2 MFI
same,fluorescence intensity,[2]; [25],16 MFI
same,fluorescence intensity,[2]; [26],23.5 MFI
same,fluorescence intensity,[2]; [27],74.2 MFI
same,fluorescence intensity,[2]; [28],317 MFI
same,fluorescence intensity,[2]; [29],1450 MFI
same,fluorescence intensity,[2]; [22],3340 MFI
same,fluorescence intensity,[2]; [23],4650 MFI
4-173.2 (protein) chain 1: QLQLQESGPGLVKPSETLSLTCAVSGGSINSNYWSWIRQPPGKGLDWIGRISGSGGSTDYNPSLKSRVTISTDTSKTQFSLKLRSVTAADTAVYYCGRGSYQIDYWGQGILVTVSS chain 2: QAALTQPPSMSGSPGQSVTISCTGTSSDIGGYNRVSWYQQYPGKAPKLMIYEVSKRPSGVSDRFSGSKSGNTASLTISGLQAADEADYYCSSYAGSKALFGGGTRLTVL,fluorescence intensity,[3]; [24],26 MFI
same,fluorescence intensity,[3]; [25],25.5 MFI
same,fluorescence intensity,[3]; [26],25 MFI
same,fluorescence intensity,[3]; [27],26 MFI
same,fluorescence intensity,[3]; [28],27.2 MFI
same,fluorescence intensity,[3]; [29],30.5 MFI
same,fluorescence intensity,[3]; [22],57.8 MFI
same,fluorescence intensity,[3]; [23],386 MFI
same,fluorescence intensity,[4]; [24],21.5 MFI
same,fluorescence intensity,[4]; [25],22 MFI
same,fluorescence intensity,[4]; [26],21.5 MFI
same,fluorescence intensity,[4]; [27],22 MFI
same,fluorescence intensity,[4]; [28],22 MFI
same,fluorescence intensity,[4]; [29],27 MFI
same,fluorescence intensity,[4]; [22],47 MFI
same,fluorescence intensity,[4]; [23],286 MFI
same,fluorescence intensity,[5]; [24],13 MFI
same,fluorescence intensity,[5]; [25],13 MFI
same,fluorescence intensity,[5]; [26],15 MFI
same,fluorescence intensity,[5]; [27],13.8 MFI
same,fluorescence intensity,[5]; [28],14.5 MFI
same,fluorescence intensity,[5]; [29],15 MFI
same,fluorescence intensity,[5]; [22],19.5 MFI
same,fluorescence intensity,[5]; [23],53.2 MFI
same,fluorescence intensity,[6]; [24],26 MFI
same,fluorescence intensity,[6]; [25],27.8 MFI
same,fluorescence intensity,[6]; [26],25.8 MFI
same,fluorescence intensity,[6]; [27],27.8 MFI
same,fluorescence intensity,[6]; [28],25.5 MFI
same,fluorescence intensity,[6]; [29],26.5 MFI
same,fluorescence intensity,[6]; [22],30 MFI
same,fluorescence intensity,[6]; [23],45.5 MFI
same,fluorescence intensity,[7]; [24],23 MFI
same,fluorescence intensity,[7]; [25],23.2 MFI
same,fluorescence intensity,[7]; [26],24 MFI
same,fluorescence intensity,[7]; [27],21.5 MFI
same,fluorescence intensity,[7]; [28],23.5 MFI
same,fluorescence intensity,[7]; [29],23.5 MFI
same,fluorescence intensity,[7]; [22],27 MFI
same,fluorescence intensity,[7]; [23],41.5 MFI
same,fluorescence intensity,[8]; [24],17 MFI
same,fluorescence intensity,[8]; [25],17 MFI
same,fluorescence intensity,[8]; [26],17 MFI
same,fluorescence intensity,[8]; [27],17.5 MFI
same,fluorescence intensity,[8]; [28],15.2 MFI
same,fluorescence intensity,[8]; [29],17 MFI
same,fluorescence intensity,[8]; [22],18.8 MFI
same,fluorescence intensity,[8]; [23],30.5 MFI
same,fluorescence intensity,[9]; [24],20 MFI
same,fluorescence intensity,[9]; [25],19.5 MFI
same,fluorescence intensity,[9]; [26],19.5 MFI
same,fluorescence intensity,[9]; [27],18.2 MFI
same,fluorescence intensity,[9]; [28],20 MFI
same,fluorescence intensity,[9]; [29],19.5 MFI
same,fluorescence intensity,[9]; [22],22 MFI
same,fluorescence intensity,[9]; [23],28 MFI
same,fluorescence intensity,[10]; [24],28 MFI
same,fluorescence intensity,[10]; [25],30.5 MFI
same,fluorescence intensity,[10]; [26],30 MFI
same,fluorescence intensity,[10]; [27],31.2 MFI
same,fluorescence intensity,[10]; [28],28.8 MFI
same,fluorescence intensity,[10]; [29],34 MFI
same,fluorescence intensity,[10]; [22],39.2 MFI
same,fluorescence intensity,[10]; [23],52 MFI
same,fluorescence intensity,[11]; [24],29 MFI
same,fluorescence intensity,[11]; [25],25 MFI
same,fluorescence intensity,[11]; [26],23 MFI
same,fluorescence intensity,[11]; [27],26.5 MFI
same,fluorescence intensity,[11]; [28],25.8 MFI
same,fluorescence intensity,[11]; [29],26 MFI
same,fluorescence intensity,[11]; [22],32 MFI
same,fluorescence intensity,[11]; [23],44.5 MFI
same,fluorescence intensity,[12]; [24],22.8 MFI
same,fluorescence intensity,[12]; [25],23 MFI
same,fluorescence intensity,[12]; [26],21 MFI
same,fluorescence intensity,[12]; [27],19 MFI
same,fluorescence intensity,[12]; [28],23.5 MFI
same,fluorescence intensity,[12]; [29],22.5 MFI
same,fluorescence intensity,[12]; [22],40.5 MFI
same,fluorescence intensity,[12]; [23],262 MFI
same,fluorescence intensity,[13]; [24],23 MFI
same,fluorescence intensity,[13]; [25],22.5 MFI
same,fluorescence intensity,[13]; [26],22 MFI
same,fluorescence intensity,[13]; [27],22.5 MFI
same,fluorescence intensity,[13]; [28],23 MFI
same,fluorescence intensity,[13]; [29],23.5 MFI
same,fluorescence intensity,[13]; [22],34 MFI
same,fluorescence intensity,[13]; [23],128 MFI
same,fluorescence intensity,[14]; [24],12.5 MFI
same,fluorescence intensity,[14]; [25],14.2 MFI
same,fluorescence intensity,[14]; [26],15 MFI
same,fluorescence intensity,[14]; [27],15 MFI
same,fluorescence intensity,[14]; [28],14 MFI
same,fluorescence intensity,[14]; [29],15.5 MFI
same,fluorescence intensity,[14]; [22],16.5 MFI
same,fluorescence intensity,[14]; [23],29 MFI
same,fluorescence intensity,[15]; [24],14 MFI
same,fluorescence intensity,[15]; [25],13.5 MFI
same,fluorescence intensity,[15]; [26],14.5 MFI
same,fluorescence intensity,[15]; [27],15.2 MFI
same,fluorescence intensity,[15]; [28],14.2 MFI
same,fluorescence intensity,[15]; [29],16 MFI
same,fluorescence intensity,[15]; [22],20.5 MFI
same,fluorescence intensity,[15]; [23],46 MFI
same,fluorescence intensity,[16]; [24],16 MFI
same,fluorescence intensity,[16]; [25],15 MFI
same,fluorescence intensity,[16]; [26],15 MFI
same,fluorescence intensity,[16]; [27],16 MFI
same,fluorescence intensity,[16]; [28],16.5 MFI
same,fluorescence intensity,[16]; [29],17 MFI
same,fluorescence intensity,[16]; [22],20 MFI
same,fluorescence intensity,[16]; [23],48.5 MFI
same,fluorescence intensity,[17]; [24],18.8 MFI
same,fluorescence intensity,[17]; [25],19.5 MFI
same,fluorescence intensity,[17]; [26],18.5 MFI
same,fluorescence intensity,[17]; [27],18.5 MFI
same,fluorescence intensity,[17]; [28],19.2 MFI
same,fluorescence intensity,[17]; [29],20 MFI
same,fluorescence intensity,[17]; [22],23.5 MFI
same,fluorescence intensity,[17]; [23],61.8 MFI
same,fluorescence intensity,[18]; [24],20 MFI
same,fluorescence intensity,[18]; [25],19 MFI
same,fluorescence intensity,[18]; [26],18.5 MFI
same,fluorescence intensity,[18]; [27],20.5 MFI
same,fluorescence intensity,[18]; [28],18.5 MFI
same,fluorescence intensity,[18]; [29],19.5 MFI
same,fluorescence intensity,[18]; [22],22.5 MFI
same,fluorescence intensity,[18]; [23],45.8 MFI
same,fluorescence intensity,[19]; [24],14 MFI
same,fluorescence intensity,[19]; [25],14 MFI
same,fluorescence intensity,[19]; [26],15 MFI
same,fluorescence intensity,[19]; [27],15 MFI
same,fluorescence intensity,[19]; [28],14.5 MFI
same,fluorescence intensity,[19]; [29],18.8 MFI
same,fluorescence intensity,[19]; [22],38.5 MFI
same,fluorescence intensity,[19]; [23],276 MFI
same,fluorescence intensity,[20]; [24],12 MFI
same,fluorescence intensity,[20]; [25],13.2 MFI
same,fluorescence intensity,[20]; [26],11.5 MFI
same,fluorescence intensity,[20]; [27],13 MFI
same,fluorescence intensity,[20]; [28],12 MFI
same,fluorescence intensity,[20]; [29],13.5 MFI
same,fluorescence intensity,[20]; [22],13.5 MFI
same,fluorescence intensity,[20]; [23],21.5 MFI
same,fluorescence intensity,[21]; [24],19.5 MFI
same,fluorescence intensity,[21]; [25],20 MFI
same,fluorescence intensity,[21]; [26],19.5 MFI
same,fluorescence intensity,[21]; [27],17.8 MFI
same,fluorescence intensity,[21]; [28],21 MFI
same,fluorescence intensity,[21]; [29],24.2 MFI

# Taken from the entries so far (six entries):
binder,measurement,setting,value
4-173.2 (protein) chain 1: QLQLQESGPGLVKPSETLSLTCAVSGGSINSNYWSWIRQPPGKGLDWIGRISGSGGSTDYNPSLKSRVTISTDTSKTQFSLKLRSVTAADTAVYYCGRGSYQIDYWGQGILVTVSS chain 2: QAALTQPPSMSGSPGQSVTISCTGTSSDIGGYNRVSWYQQYPGKAPKLMIYEVSKRPSGVSDRFSGSKSGNTASLTISGLQAADEADYYCSSYAGSKALFGGGTRLTVL,fluorescence intensity,[6]; [23],45.5 MFI
same,fluorescence intensity,[7]; [24],23 MFI
same,fluorescence intensity,[7]; [25],23.2 MFI
same,fluorescence intensity,[7]; [26],24 MFI
same,fluorescence intensity,[7]; [27],21.5 MFI
same,fluorescence intensity,[7]; [28],23.5 MFI
